Assay results reported in US9623001B2, “Methods of reducing the risk of a cardiovascular event in a subject on statin therapy” (Amarin Pharmaceuticals Ireland Limited, priority 2012, dated 2017).
At least one compound was matched to its structure with a doubt left.

Experiment: Phase 3 placebo-controlled, randomized, double-blind cardiovascular outcomes study of AMR101 4 g daily in statin-treated patients with hypertriglyceridemia (planned)
Format: in vivo
Settings: by 4 years, sample size assumption

Question: Which “relative reduction of the primary composite endpoint versus placebo” value does the source give for `CC/C=C\C/C=C\C/C=C\C/C=C\C/C=C\CCCC(=O)OCC` [AMR101, eicosapentaenoic acid ethyl ester] here?
Answer: 15%
